Results: patent EP4834881A1, “QUINOLONE COMPOUNDS AND USE THEREOF” (dated 2026)
The structures given here were assigned with low confidence; some may be wrong. Marks after values point to notes of the source that are not given here.

Sequences of proteins named here, by UniProt entry; tags and fusion partners are left off.
UniProt Q96LB1, whole entry: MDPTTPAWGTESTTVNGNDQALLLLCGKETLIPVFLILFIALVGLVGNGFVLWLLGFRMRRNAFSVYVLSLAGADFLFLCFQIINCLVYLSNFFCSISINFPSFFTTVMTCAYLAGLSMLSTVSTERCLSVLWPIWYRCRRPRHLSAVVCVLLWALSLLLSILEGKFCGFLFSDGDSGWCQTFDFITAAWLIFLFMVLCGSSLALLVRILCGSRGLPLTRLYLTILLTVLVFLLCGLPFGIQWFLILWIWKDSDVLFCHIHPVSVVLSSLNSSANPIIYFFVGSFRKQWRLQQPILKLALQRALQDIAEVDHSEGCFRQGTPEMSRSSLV

Legend:
BALB/c mice [1] = assay: Asthma model: OVA sensitization and aerosol challenge, bronchoalveolar lavage fluid (BALF) cell differential count; settings: 5mg/kg PO, 7 days, mean ± SEM
Method: (§1) Experimental animals: BALB/c mice, from Guangdong Vital River Laboratory Animal Technology Co., Ltd.
(§2) Modeling was initiaed on the day of grouping, which was designated as M1. Except for the normal group, mice in all modeling groups were intraperitoneally injected with a sensitization solution of (500 µg OVA (Ovalbumin) (Supplier: Shanghai Macklin, Lot No.: C16255388) mixed with 5 mg aluminum hydroxide/mL) per mouse, while the normal control group was given an equal volume of sterile PBS solution. The injection cycle was M1, M7, and M14. Starting from M21, challenge was carried out by aerosolization once daily for 7 consecutive days. The challenge solution was a 20 mg/mL OVA (Ovalbumin) solution, and each aerosolization challenge lasted for 30 min. The normal control group was not subjected to aerosolization.
(§3) Administration was initiated on day M21, which was designated as D1, and was performed once daily for 7 consecutive days. The normal control group and the model control group were administered with vehicle alone under the same conditions. The administration regimen for the mouse asthma model was as follows:
The lungs were gently lavaged twice with normal saline to collect BALF. The recovered BALF was stored at 4 °C, and the cell differential count was detected using an automated hematology analyzer (Manufacturer: SYSMEX, Model: XN-1000). During the experiment, the asthma model mice developed typical symptoms, including shortness of breath, and ear and nose scratching, etc. […] The results of the bronchoalveolar lavage fluid cell differential count in each group are shown in Table 8, and the data are presented as mean ± standard error of the mean (SEM).

BALB/c mice [2] = assay: Asthma model: IgE assay (ELISA) in peripheral blood, alveolar lavage fluid and lung tissue; settings: 5mg/kg PO, 7 days, mean ± SEM
Method: as §1, §2, §3
Prior to necropsy, blood was collected from the eyeball. The collected mouse blood was then centrifuged at 1800 r/min at 4 °C for 15 min, and the supernatant serum was aliquoted and stored at -80 °C for testing. At the same time, alveolar lavage fluid and lung tissues were collected. The IgE levels in the above three samples was detected using an ELISA method (Supplier: Shanghai Enzyme-linked Biotechnology Co., Ltd., Lot No.: ml1037602). […] The results of the IgE levels in peripheral blood, lavage fluid, and lung tissue of each group are shown in Table 9, and the data are presented as mean ± standard error of the mean (SEM).

human MRGPRX2 = human MRGPRX2 (Homo sapiens, UniProt Q96LB1); assay: In vitro target binding assay: BRET between MRGPRX2-Nluc and Venus-β-arrestin1 in transfected HEK-293T cells, antagonist mode against agonist R-ZINC-3573 (EC80); settings: antagonism of agonist R-ZINC-3573 at EC80, net BRET
Excerpt: Bioluminescence Resonance Energy Transfer (BRET) is an important biophysical technique for monitoring molecular interactions, and has been widely used to study protein-protein interactions in living cells. This technique requires the relevant proteins to be linked to an energy donor (such as luciferase) and an acceptor (such as a fluorescent protein). When a relevant drug molecule interacts with the protein, the protein structure alters, causing a change in the distance between the energy donor and the energy acceptor. The luminescence energy induced by the chemical reaction is transferred to the corresponding acceptor, resulting in increased acceptor emission, and generating a BRET signal. In this work, a DNA-synthesized target human MRGPRX2 and a donor luciferase Nluc (NanoLuc®Promega) (Supplier: Beijing Tsingke, Lot No.: SZ0171228-1), as well as an acceptor fluorescent protein Venus and the relevant test protein, namely human β-arrestin1 (ARRB1) (Supplier: Guangzhou Dahong Biotechnology, Lot No. HY22694-4396), were utilized, and were inserted into the eukaryotic expression vector plasmid pcDNA3.1(+) (Supplier: Qiyun Bio, Lot No.: QY2310) as fusion genes via a Linker sequence (GGSG). The cell line selected for the experiment was human embryonic kidney cells HEK-293T. The human embryonic kidney cell line HEK-293T was routinely cultured in 10 cm cell culture dishes using complete culture medium consisting of high-glucose DMEM medium supplemented with 10% (V/V) fetal bovine serum. Cells were seeded at 2×10^6 cells/10 cm dish on the first day of culture, and passaged every 72 h with the same number of cells. One day prior to transfection, cells were resuspended, counted, and seeded at a density of 2×10^6 cells/6 cm dish or 4×10^6 cells/10 cm dish. Transfection was carried out 16-24 h after seeding. Plasmids constructed with the fusion protein gene were transfected into the expression cell line, and the transfected cells were cultured under appropriate conditions for a period of time to allow sufficient expression of the fusion proteins. Transfection was performed by encapsulating plasmid DNA with PEI reagent, and the encapsulation process should to be carried out in Opti-MEM medium. The ratio of plasmid, PEI (Supplier: Yeasen Biotechnology, Lot No.: WP5430010), and Opti-MEM (Supplier: Gibco, Lot No.: 2883564) was 1:4:14 (W: W: V). The encapsulated plasmid was added to an appropriate amount of complete culture medium, amd gently mixed, which was then used to replace the existing culture medium of the previously plated cells. Cells were harvested 24 h after transfection. Subsequently, cells were resuspended using HBSS (Source: Biosharp, Lot No.: 24179687) and counted with a cell counter. The cells were diluted to a density of (3~5) ×10^5 cells/mL, and then seeded into a flat-bottom white 96-well microplate at 100 µ L/well, resulting in (3~5) ×10^4 cells per well. In each well, 10 µ L of antagonist compounds diluted with HBSS a different concentrations were added firstly, then the agonist compound at a specific concentration (EC80) was added. After reacting for 2 min, the substrate Furimazine (Supplier: TargetMol, Lot No.: 362434) at a final concentration of 10 µM was added. After reacting for another 2 min, the 96-well plate was placed in a PHERAstar FSX microplate reader (Supplier: BMG Labtech) to simultaneously measure the readings at wavelengths of 440 nm and 530 nm. Based on the fluorescence readings at 440 nm and 530 nm, the Ratio and net BRET were calculated. Ratio = Em530 nm / Em440 nm, and net BRET = Ratio co-transfection - Ratio single-transfection. The calculated net BRET values were inputted into GraphPad Prism 9, and curve fitting via nonlinear regression (four-parameter equation) and IC50 calculation were performed.

BALB/c mice [3] = assay: Psoriasis model: imiquimod cream on mouse back, PASI score; settings: 4mg/g Topical application, once daily, mean ± SEM
Method: as §1
The clinical severity of psoriasis was assessed using the Psoriasis Area and Severity Index (PASI) score. The PASI scoring criteria for mice are as follows:
The hair on the back of the mice was shaved, and the application area was marked with a marker pen. Imiquimod cream (Supplier: Sichuan Mingxin Pharmaceutical, Lot No.: 24054002) was applied to the back of the mice for several consecutive days to establish a mouse model of psoriasis. Before daily application, the residual cream was removed using pure water.
Administration was initiated on the day of grouping, which was designated as D1, and was performed once daily for 8 consecutive days. The normal control group and the model control group were administered with vehicle alone under the same conditions. Mice were scored according to the PASI (Psoriasis area and severity index). The administration regimen for the mouse psoriasis model was as follows: […]

BALB/c mice [4] = assay: Urticaria model: anti-dinitrophenyl antibody sensitization and dinitrofluorobenzene challenge; number of wheals, serum IgE and histamine (ELISA); settings: once daily, 6 days, mean ± SEM; for Number of Wheals: end of experiment; for Histamine Level / IgE Level: serum
Method: Experimental animals: BALB/c mice, from Hangzhou Ziyuan Laboratory Animal Technology Co., Ltd
After random grouping, the back of the mice was shaved in advance, with a shaving area of about 2 cm × 2 cm. Except for the normal control group, mice in the remaining groups were sensitized via tail vein injection of an anti-dinitrophenyl monoclonal antibody (Supplier: Sigma-Aldrich, Lot No.: 0000241402) (0.2 ng/mL) at a dose of 0.5 mL per mouse. After 24 h, the mice in each sensitization modeling group were challenged by topically applying 50 µL of 0.15% dinitrofluorobenzene (Supplier: Shanghai Macklin, Lot No.: C14969320) to the dorsal side of both ears. The normal control group was injected and topically applied with normal saline under the same conditions.
The administration regimen for the mouse urticaria model was as follows (the normal control group and the model control group were administered with vehicle alone under the same conditions) (once daily):
Mouse IgE ELISA detection kit: purchased from Shanghai Enzyme-linked Biotechnology Co., Ltd., Lot No.: ml1037602.
Mouse histamine ELISA detection kit: purchased from Shanghai Enzyme-linked Biotechnology Co., Ltd., Lot No.: ml1001877.
Microplate reader, manufacturer BioTek, model: Epoch.

BALB/c mice [5] = assay: Allergic rhinitis model: OVA sensitization and nasal challenge, number of sneezes; settings: 5mg/kg p.o. once daily, within 10 min after the nasal challenge
Method: as §1
Modeling was initiated on the day of grouping, which was designated as M1. Except for the normal group, mice in all modeling groups were intraperitoneally injected with a sensitization solution of (250 µg OVA (Ovalbumin) (Supplier: Shanghai Macklin, Lot No.: C16255388) mixed with 5 mg aluminum hydroxide/mL) per mouse, while the normal control group was given an equal volume of sterile PBS solution. The injection cycle was M1, M7, and M14. Starting from M21, challenge was carried out by nasal instillation once daily for 7 consecutive days. The challenge solution was a 50 mg/mL OVA solution, and a volume of 10 µL was instilled into each nostril per time. The normal control group was not subjected to nasal instillation.
Administration was initiated on the day of the challenge by nasal instillation, which was designated as D1, and was performed once daily for 7 consecutive days. The normal control group and the model control group were administered with vehicle alone under the same conditions:
The number of sneezes in each group was recorded within 10 min after the nasal challenge every day during the administration period.

O=C(O)c1cn(C2CC2)c2c(F)c(-c3ccc(S(=O)(=O)N4CCOCC4)cc3)c(F)cc2c1=O
Eosinophil Count (BALB/c mice [1]): 2.4±0.6* 10^9/L | Leukocyte Count WBC (BALB/c mice [1]): 3.0 ±0.8* 10^9/L | Lymphocyte Count (BALB/c mice [1]): 0.2±0.04* 10^9/L | Monocyte Count (BALB/c mice [1]): 0.1±0.04* 10^9/L | Neutrophil Count (BALB/c mice [1]): 0.2 ±0.05* 10^9/L | Alveolar Lavage Fluid IgE Concentration (BALB/c mice [2]; alveolar lavage fluid): 14.8 ± 3.5 ng/mL | Lung Tissue IgE Concentration (BALB/c mice [2]; lung tissue): 48.9 ± 4.6 ng/mL | Peripheral Blood IgE Concentration (BALB/c mice [2]; serum): 12.1 ± 3.2 ng/mL

O=C(O)c1cn(C2CC2)c2cc(-c3ccc(S(=O)(=O)NCCCC(F)(F)F)cc3)c(F)cc2c1=O
IC50 (human MRGPRX2): 1 to 10 µM | PASI score (BALB/c mice [3]; D1): 0 | PASI score (BALB/c mice [3]; D2): 0.6±0.3 | PASI score (BALB/c mice [3]; D3): 1.7±0.3 | PASI score (BALB/c mice [3]; D4): 3.1±0.3 | PASI score (BALB/c mice [3]; D5): 3.8±0.3 | PASI score (BALB/c mice [3]; D6): 4.6 · | PASI score (BALB/c mice [3]; D7): 5.5 · | PASI score (BALB/c mice [3]; D8): 6.6 · | Number of Wheals (BALB/c mice [4]; 4mg/kg Topical application): 11.4 · | Number of Wheals (BALB/c mice [4]; 25mg/kg Oral): 10 · | Histamine Level (BALB/c mice [4]; 4mg/kg Topical application): 7.4 ± 1.0 ng/mL | IgE Level (BALB/c mice [4]; 4mg/kg Topical application): 15.2 ± 2.0 µg/mL | Histamine Level (BALB/c mice [4]; 25mg/kg Oral): 5.8 ± 1.0 ng/mL | IgE Level (BALB/c mice [4]; 25mg/kg Oral): 11.5 ± 2.0 µg/mL | number of sneezes (BALB/c mice [5]; D1): 2.8 number of sneezes/mouse | number of sneezes (BALB/c mice [5]; D2): 3.1 number of sneezes/mouse | number of sneezes (BALB/c mice [5]; D3): 10.2 number of sneezes/mouse | number of sneezes (BALB/c mice [5]; D4): 14.9 number of sneezes/mouse | number of sneezes (BALB/c mice [5]; D5): 10.7 number of sneezes/mouse | number of sneezes (BALB/c mice [5]; D6): 16.1 number of sneezes/mouse | number of sneezes (BALB/c mice [5]; D7): 13.4 number of sneezes/mouse
